In the supplement of paper PMC10849652:
This is one part of the list.

Amino acid sequences for entries named in this document (tags omitted). A change or cut given only in a name is not applied to a line headed by its entry.
UniProt Q13496: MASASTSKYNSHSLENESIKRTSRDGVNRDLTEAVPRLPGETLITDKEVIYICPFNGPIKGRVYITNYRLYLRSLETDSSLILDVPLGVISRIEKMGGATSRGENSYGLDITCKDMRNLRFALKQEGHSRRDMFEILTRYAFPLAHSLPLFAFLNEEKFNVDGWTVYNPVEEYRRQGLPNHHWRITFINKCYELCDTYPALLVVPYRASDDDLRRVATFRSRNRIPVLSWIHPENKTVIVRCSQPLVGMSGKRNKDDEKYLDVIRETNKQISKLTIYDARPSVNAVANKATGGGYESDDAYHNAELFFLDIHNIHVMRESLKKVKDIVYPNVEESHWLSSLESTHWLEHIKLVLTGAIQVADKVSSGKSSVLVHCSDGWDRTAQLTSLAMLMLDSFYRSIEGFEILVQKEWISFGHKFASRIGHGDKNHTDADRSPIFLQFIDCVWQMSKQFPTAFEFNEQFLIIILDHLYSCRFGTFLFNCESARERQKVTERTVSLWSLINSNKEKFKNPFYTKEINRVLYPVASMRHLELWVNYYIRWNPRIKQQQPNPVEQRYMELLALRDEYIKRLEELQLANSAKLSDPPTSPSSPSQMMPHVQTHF
UniProt Q9Y6C9: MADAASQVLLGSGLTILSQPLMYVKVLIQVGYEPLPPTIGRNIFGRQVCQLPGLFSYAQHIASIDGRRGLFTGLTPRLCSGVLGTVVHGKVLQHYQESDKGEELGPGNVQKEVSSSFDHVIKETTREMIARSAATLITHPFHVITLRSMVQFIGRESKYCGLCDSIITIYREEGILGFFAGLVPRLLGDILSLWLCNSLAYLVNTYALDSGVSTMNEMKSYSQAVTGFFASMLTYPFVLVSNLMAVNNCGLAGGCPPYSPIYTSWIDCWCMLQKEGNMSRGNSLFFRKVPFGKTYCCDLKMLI
UniProt P03915, whole entry, looked up: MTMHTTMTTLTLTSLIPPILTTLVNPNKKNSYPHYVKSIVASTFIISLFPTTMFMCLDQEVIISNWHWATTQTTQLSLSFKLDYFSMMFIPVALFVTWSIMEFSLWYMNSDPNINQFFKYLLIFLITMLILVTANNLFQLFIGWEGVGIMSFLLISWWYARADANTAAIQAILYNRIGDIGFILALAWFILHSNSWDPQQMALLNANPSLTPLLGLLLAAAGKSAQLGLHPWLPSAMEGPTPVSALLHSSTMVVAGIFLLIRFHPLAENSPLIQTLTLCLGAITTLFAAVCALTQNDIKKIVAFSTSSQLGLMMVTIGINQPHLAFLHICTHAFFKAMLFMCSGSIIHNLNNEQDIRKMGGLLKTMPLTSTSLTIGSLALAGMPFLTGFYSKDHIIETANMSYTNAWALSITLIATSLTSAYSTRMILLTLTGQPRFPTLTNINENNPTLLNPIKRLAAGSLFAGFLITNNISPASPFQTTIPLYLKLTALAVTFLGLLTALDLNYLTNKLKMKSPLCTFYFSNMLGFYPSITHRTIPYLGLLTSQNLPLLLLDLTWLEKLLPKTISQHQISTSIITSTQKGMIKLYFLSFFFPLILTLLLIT
UniProt Q9C0I1: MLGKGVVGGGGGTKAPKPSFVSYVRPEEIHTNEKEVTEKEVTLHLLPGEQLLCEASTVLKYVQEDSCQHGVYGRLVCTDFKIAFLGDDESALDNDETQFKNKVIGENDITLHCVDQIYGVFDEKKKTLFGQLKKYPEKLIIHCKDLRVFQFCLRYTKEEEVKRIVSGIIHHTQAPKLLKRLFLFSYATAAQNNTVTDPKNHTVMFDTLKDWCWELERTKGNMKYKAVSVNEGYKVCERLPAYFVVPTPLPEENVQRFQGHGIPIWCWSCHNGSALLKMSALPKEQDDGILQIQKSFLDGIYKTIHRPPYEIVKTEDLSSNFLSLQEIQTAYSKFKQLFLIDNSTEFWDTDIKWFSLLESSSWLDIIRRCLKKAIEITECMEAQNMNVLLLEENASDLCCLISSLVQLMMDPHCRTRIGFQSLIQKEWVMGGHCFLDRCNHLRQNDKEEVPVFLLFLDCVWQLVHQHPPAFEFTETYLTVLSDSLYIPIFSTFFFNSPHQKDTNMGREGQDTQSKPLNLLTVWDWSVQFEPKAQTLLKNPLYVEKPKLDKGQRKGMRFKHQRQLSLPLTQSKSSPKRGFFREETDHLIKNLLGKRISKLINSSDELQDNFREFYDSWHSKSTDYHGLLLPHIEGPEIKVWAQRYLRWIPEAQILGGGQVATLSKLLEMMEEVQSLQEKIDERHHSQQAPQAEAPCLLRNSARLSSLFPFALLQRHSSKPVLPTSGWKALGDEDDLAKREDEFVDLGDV
UniProt O94776: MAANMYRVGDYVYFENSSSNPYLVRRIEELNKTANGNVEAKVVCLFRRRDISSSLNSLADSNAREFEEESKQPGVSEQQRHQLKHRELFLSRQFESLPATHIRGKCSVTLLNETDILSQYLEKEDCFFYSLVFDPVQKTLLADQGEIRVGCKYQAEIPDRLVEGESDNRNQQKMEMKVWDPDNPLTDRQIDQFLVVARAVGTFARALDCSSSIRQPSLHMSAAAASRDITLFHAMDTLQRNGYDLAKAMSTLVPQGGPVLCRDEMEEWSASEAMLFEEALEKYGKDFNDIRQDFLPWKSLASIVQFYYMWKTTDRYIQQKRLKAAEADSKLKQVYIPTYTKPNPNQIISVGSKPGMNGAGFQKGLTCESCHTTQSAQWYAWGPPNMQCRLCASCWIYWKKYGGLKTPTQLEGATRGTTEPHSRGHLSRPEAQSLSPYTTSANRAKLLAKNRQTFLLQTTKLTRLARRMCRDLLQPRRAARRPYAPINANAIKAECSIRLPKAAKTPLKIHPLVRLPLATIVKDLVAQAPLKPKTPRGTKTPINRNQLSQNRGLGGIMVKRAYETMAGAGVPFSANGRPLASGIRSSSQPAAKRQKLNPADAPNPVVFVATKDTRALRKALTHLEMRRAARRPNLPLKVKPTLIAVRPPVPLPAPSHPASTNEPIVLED
UniProt Q15390: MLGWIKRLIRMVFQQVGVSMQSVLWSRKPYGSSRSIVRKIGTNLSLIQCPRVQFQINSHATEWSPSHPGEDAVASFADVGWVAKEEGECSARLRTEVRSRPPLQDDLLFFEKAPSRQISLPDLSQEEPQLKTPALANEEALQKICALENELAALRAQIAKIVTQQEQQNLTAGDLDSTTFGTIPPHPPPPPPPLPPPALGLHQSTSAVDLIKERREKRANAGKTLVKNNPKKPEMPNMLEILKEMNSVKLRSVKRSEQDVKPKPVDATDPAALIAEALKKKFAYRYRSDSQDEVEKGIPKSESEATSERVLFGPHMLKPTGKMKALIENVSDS
UniProt P26038, whole entry, looked up: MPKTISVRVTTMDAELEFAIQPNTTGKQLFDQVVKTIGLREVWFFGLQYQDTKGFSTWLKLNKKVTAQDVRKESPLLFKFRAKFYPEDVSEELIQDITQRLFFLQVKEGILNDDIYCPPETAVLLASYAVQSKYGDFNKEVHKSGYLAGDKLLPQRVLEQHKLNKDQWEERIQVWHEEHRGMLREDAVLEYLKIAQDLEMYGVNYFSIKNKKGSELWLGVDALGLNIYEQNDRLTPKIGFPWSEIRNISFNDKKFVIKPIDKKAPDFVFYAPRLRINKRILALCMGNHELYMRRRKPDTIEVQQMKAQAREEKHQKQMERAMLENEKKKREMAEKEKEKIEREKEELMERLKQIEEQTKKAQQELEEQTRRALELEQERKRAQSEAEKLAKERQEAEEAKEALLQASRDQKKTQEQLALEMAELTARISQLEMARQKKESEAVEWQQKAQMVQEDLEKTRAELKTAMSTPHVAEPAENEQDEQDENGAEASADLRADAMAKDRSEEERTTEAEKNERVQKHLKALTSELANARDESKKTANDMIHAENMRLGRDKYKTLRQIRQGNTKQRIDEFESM
UniProt P00403, whole entry, looked up: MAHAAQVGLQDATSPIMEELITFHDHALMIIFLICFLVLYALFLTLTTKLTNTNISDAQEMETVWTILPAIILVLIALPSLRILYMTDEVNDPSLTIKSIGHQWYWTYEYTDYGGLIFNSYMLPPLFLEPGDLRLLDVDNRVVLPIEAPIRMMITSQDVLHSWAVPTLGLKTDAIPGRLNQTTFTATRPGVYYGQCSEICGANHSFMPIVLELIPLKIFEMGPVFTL
UniProt P00414, whole entry, looked up: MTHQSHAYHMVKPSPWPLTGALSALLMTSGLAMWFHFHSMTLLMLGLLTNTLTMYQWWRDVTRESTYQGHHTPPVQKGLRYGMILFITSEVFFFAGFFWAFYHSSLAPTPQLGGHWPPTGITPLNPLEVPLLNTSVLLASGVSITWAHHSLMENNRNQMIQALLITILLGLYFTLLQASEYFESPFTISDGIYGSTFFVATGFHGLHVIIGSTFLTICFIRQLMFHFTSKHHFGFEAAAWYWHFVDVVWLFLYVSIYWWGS
UniProt Q03426, whole entry, looked up: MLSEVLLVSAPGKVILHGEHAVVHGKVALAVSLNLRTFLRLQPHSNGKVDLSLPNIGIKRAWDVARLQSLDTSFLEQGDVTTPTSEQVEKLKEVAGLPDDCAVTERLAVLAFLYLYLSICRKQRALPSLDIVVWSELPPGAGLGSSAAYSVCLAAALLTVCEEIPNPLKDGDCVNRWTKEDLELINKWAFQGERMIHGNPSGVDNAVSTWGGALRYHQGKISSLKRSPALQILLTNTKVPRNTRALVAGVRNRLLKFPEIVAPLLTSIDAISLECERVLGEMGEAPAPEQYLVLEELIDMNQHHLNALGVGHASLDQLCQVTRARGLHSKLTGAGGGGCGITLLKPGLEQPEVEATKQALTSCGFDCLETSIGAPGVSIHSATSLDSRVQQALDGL
UniProt Q9Y3D2: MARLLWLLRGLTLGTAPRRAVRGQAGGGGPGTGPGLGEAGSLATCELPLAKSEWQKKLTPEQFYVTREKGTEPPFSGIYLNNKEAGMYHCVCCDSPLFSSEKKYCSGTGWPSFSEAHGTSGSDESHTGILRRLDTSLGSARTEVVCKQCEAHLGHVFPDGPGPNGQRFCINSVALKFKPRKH

Tests used:
Assay in all cases: log2 fold change, soluble protein after heating vs DMSO (PISA); higher = thermal stabilisation; K562 cells, 10 uM, 30 min; active = over 0.2 and 3.5 SD of the protein, either way, in both replicates (recomputed)
[1] = compound: CN1CCN(CCOc2cc(OC3CCOCC3)c3c(Nc4c(Cl)ccc5c4OCO5)ncnc3c2)CC1 [saracatinib]
Procedure, shortened: (§1)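 Soluble protein was quantified by TMTpro 16plex LC-MS/MS after channel sums were equalised. It was obtained as the supernatant after 21,000xg for 90 min from pooled aliquots of K562 cells (2×10^6 cells/mL, 10 μM compound, 30 min) heated for 3 min across 48°C-58°C and extracted in PBS with 0.5% NP-40 at 4°C. Thermal stability values are relative to control samples and come from duplicates. They are given as log2 fold changes.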

[2] = compound: CN1CCN(c2nc(C3=C(c4c[nH]c5ccccc45)C(=O)NC3=O)c3ccccc3n2)CC1 [sotrastaurin]
Procedure, shortened: as §1

[3] = compound: CN1CC[C@H](c2c(O)cc(O)c3c(=O)cc(-c4ccccc4Cl)oc23)[C@H](O)C1 [alvocidib]
Procedure, shortened: as §1

[4] = compound: CN1CCc2c(c3ccccc3n2Cc2ccc(C(=O)NO)cc2)C1 [Tubastatin A]
Procedure, shortened: as §1

[5] = compound: CNC(=O)C1=CC=CC=C1NC2=NC(=NC=C2Cl)NC3=C(C=C(C=C3)N4CCOCC4)OC
Procedure, shortened: as §1

[6] = compound: CNC(=O)c1ccc(Nc2ncc(C(F)(F)F)c(NCc3nccnc3N(C)S(C)(=O)=O)n2)cc1 [defactinib]
Procedure, shortened: as §1

[7] = compound: CNCc1ccc(-c2[nH]c3cc(F)cc4c3c2CCNC4=O)cc1 [rucaparib]
Procedure, shortened: as §1

[8] = compound: CNc1nc(-c2ccc3c(N)n[nH]c3c2)cc(N2C[C@@H](C(=O)NC3CCCCC3)CC[C@H]2C)n1
Procedure, shortened: as §1

[9] = compound: COC(=O)N[C@@H](C)CNc1nccc(-c2cn(C(C)C)nc2-c2cc(Cl)cc(NS(C)(=O)=O)c2F)n1 [encorafenib]
Procedure, shortened: as §1

[10] = compound: COC(=O)[C@H](CCSC)NC(=O)C1=C(C=C(C=C1)NC[C@H](CS)N)C2=CC=CC=C2
Procedure, shortened: as §1

[11] = compound: COC1=CC=C(C=C1)CN2C=CC3=C2C=C(C=C3)C(=O)NO
Procedure, shortened: as §1

[12] = compound: CON(C)C(=O)N1N=C(c2cc(F)ccc2F)S[C@@]1(CCCN)c1ccccc1 [filanesib]
Procedure, shortened: as §1

[13] = compound: CO[C@H]1C[C@@H]2CC[C@@H](C)[C@@](O)(O2)C(=O)C(=O)N2CCCC[C@H]2C(=O)O[C@H]([C@H](C)C[C@@H]2CC[C@H](n3cnnn3)[C@H](OC)C2)CC(=O)[C@H](C)/C=C(\C)[C@@H](O)[C@@H](OC)C(=O)[C@H](C)C[C@H](C)/C=C/C=C/C=C/1C [zotarolimus]
Procedure, shortened: as §1

[14] = compound: COc1cc(C(=O)O)ccc1NC(=O)[C@@H]1N[C@@H](CC(C)(C)C)[C@](C#N)(c2ccc(Cl)cc2F)[C@H]1c1cccc(Cl)c1F [idasanutlin]
Procedure, shortened: as §1

[15] = compound: COc1cc(Nc2ncc3c(n2)-c2ccc(Cl)cc2C(c2c(F)cccc2OC)=NC3)ccc1C(=O)O [alisertib]
Procedure, shortened: as §1

[16] = compound: COc1cc2nc(-c3cc(F)ccc3O)nc(N[C@@H]3CNC[C@H]3C(C)(C)O)c2cc1OC
Procedure, shortened: as §1

[17] = compound: COc1cc2ncnc(Nc3ccc(F)c(Cl)c3)c2cc1OCCCN1CCOCC1 [gefitinib]
Procedure, shortened: as §1

[18] = compound: COc1cccc2cc(-c3nc([C@H]4CC[C@H](C(=O)O)CC4)n4ncnc(N)c34)[nH]c12
Procedure, shortened: as §1

[19] = compound: CS(=O)(=O)CCNCc1ccc(-c2ccc3ncnc(Nc4ccc(OCc5cccc(F)c5)c(Cl)c4)c3c2)o1 [lapatinib]
Procedure, shortened: as §1

[20] = compound: CS(=O)(=O)N1CCN(Cc2cc3nc(-c4cccc5[nH]ncc45)nc(N4CCOCC4)c3s2)CC1 [pictilisib]
Procedure, shortened: as §1

Measured: log2 fold change

MTM1 (UniProt Q13496)
inactive: [1] 0.093 | [2] 0.016 | [3] 0.01 | [4] 0.068 | [5] -0.085 | [6] -0.093 | [7] -0.007 | [8] 0.025 | [9] -0.055 | [10] -0.014 | [11] 0.006 | [12] -0.001 | [13] 0.036 | [14] -0.072 | [15] -0.019 | [16] -0.039 | [17] 0.029 | [18] 0.042 | [19] 0.008 | [20] -0.042

MTCH2 (UniProt Q9Y6C9)
inactive: [1] 0 | [2] 0.05 | [3] -0.025 | [4] -0.155 | [5] 0.033 | [6] 0.019 | [7] 0 | [8] -0.034 | [9] -0.005 | [10] 0.049 | [11] -0.024 | [12] -0.062 | [13] -0.046 | [14] 0.021 | [15] -0.01 | [16] -0.026 | [17] 0.031 | [18] 0.05 | [19] -0.028 | [20] 0.012

MT-ND5 (UniProt P03915)
inactive: [1] 0.102 | [2] -0.009 | [3] 0.107 | [4] -0.002 | [5] 0.001 | [6] -0.004 | [7] 0 | [8] -0.07 | [9] -0.021 | [10] 0.111 | [11] -0.014 | [12] -0.12 | [13] 0.022 | [14] 0 | [15] 0 | [16] 0.102 | [17] -0.007 | [18] 0 | [19] 0.015 | [20] -0.142

MTMR12 (UniProt Q9C0I1)
inactive: [1] -0.001 | [2] -0.001 | [3] -0.009 | [4] -0.011 | [5] -0.045 | [6] -0.02 | [7] 0.013 | [8] -0.007 | [9] -0.002 | [10] 0.022 | [11] -0.013 | [12] 0.03 | [13] -0.022 | [14] -0.012 | [15] -0.05 | [16] 0.039 | [17] 0.018 | [18] 0.052 | [19] 0.019 | [20] 0.012

MTA2 (UniProt O94776)
inactive: [1] -0.053 | [2] -0.168 | [3] -0.132 | [4] -0.006 | [5] -0.03 | [6] -0.106 | [7] 0.052 | [8] 0.018 | [9] 0.145 | [10] -0.009 | [11] 0.095 | [12] 0.02 | [13] 0.057 | [14] 0.005 | [15] -0.034 | [16] -0.024 | [17] 0.014 | [18] -0.114 | [19] 0.029 | [20] -0.008

MRTO4 (UniProt Q9UKD2)
inactive: [1] -0.059 | [2] -0.137 | [3] 0.007 | [4] 0.213 | [5] 0.042 | [6] 0.088 | [7] 0.288 | [8] 0 | [9] 0.239 | [10] -0.053 | [11] -0.097 | [12] 0.4 | [13] 0.219 | [14] 0.055 | [15] -0.162 | [16] 0.02 | [17] 0.003 | [18] -0.235 | [19] 0.103 | [20] -0.029

MTFR1 (UniProt Q15390)
inactive: [1] -0.006 | [2] -0.002 | [3] -0.085 | [4] 0.04 | [5] -0.019 | [6] -0.078 | [7] -0.017 | [8] -0.037 | [9] -0.011 | [10] 0.061 | [11] -0.027 | [12] -0.09 | [13] -0.022 | [14] -0.013 | [15] -0.024 | [16] -0.042 | [17] 0.069 | [18] 0.08 | [19] -0.026 | [20] -0.032

MRPS7 (UniProt Q9Y2R9)
inactive: [1] -0.012 | [2] -0.15 | [3] 0.029 | [4] 0.04 | [5] 0.049 | [6] 0.064 | [7] 0.146 | [8] 0.091 | [9] 0.054 | [10] -0.068 | [11] -0.02 | [12] 0.042 | [13] 0.045 | [14] -0.053 | [15] -0.072 | [16] -0.001 | [17] -0.095 | [18] -0.101 | [19] 0.077 | [20] -0.137

MRPS11 (UniProt P82912)
inactive: [1] 0 | [2] -0.038 | [3] 0.039 | [4] -0.144 | [5] -0.138 | [6] 0.06 | [7] 0.048 | [8] 0.118 | [9] 0.003 | [10] 0.029 | [11] -0.071 | [12] 0.119 | [13] 0.041 | [14] -0.199 | [15] -0.264 | [16] 0.026 | [17] -0.07 | [18] 0.079 | [19] 0.034 | [20] 0.38

MSN (UniProt P26038)
inactive: [1] 0.021 | [2] -0.004 | [3] -0.037 | [4] -0.01 | [5] 0.076 | [6] -0.029 | [7] -0.026 | [8] -0.01 | [9] -0.006 | [10] -0.034 | [11] 0.068 | [12] -0.032 | [13] 0.03 | [14] -0.022 | [15] -0.078 | [16] 0.022 | [17] 0.006 | [18] -0.048 | [19] -0.01 | [20] -0.028

2 entries drawn at random from those above, as already listed:
MRPS7 (UniProt Q9Y2R9)
inactive: [1] -0.012 | [2] -0.15 | [3] 0.029 | [4] 0.04 | [5] 0.049 | [6] 0.064 | [7] 0.146 | [8] 0.091 | [9] 0.054 | [10] -0.068 | [11] -0.02 | [12] 0.042 | [13] 0.045 | [14] -0.053 | [15] -0.072 | [16] -0.001 | [17] -0.095 | [18] -0.101 | [19] 0.077 | [20] -0.137

MRPS11 (UniProt P82912)
inactive: [1] 0 | [2] -0.038 | [3] 0.039 | [4] -0.144 | [5] -0.138 | [6] 0.06 | [7] 0.048 | [8] 0.118 | [9] 0.003 | [10] 0.029 | [11] -0.071 | [12] 0.119 | [13] 0.041 | [14] -0.199 | [15] -0.264 | [16] 0.026 | [17] -0.07 | [18] 0.079 | [19] 0.034 | [20] 0.38

Remaining list, next part:

MT-CO2 (UniProt P00403)
inactive: [1] -0.001 | [2] 0.033 | [3] -0.048 | [4] -0.094 | [5] -0.012 | [6] 0 | [7] -0.027 | [8] -0.051 | [9] 0.01 | [10] 0.103 | [11] -0.278 | [12] 0.056 | [13] 0.012 | [14] -0.098 | [15] -0.067 | [16] -0.097 | [17] 0.036 | [18] 0.028 | [19] -0.046 | [20] 0

MRPS30 (UniProt Q9NP92)
inactive: [1] -0.162 | [2] -0.012 | [3] 0.102 | [4] 0.011 | [5] -0.024 | [6] 0.058 | [7] 0.09 | [8] 0.157 | [9] 0.025 | [10] -0.028 | [11] -0.057 | [12] 0.144 | [13] 0.041 | [14] -0.214 | [15] -0.117 | [16] -0.019 | [17] -0.184 | [18] -0.053 | [19] 0.146 | [20] -0.108

MRPL58 (UniProt Q14197)
inactive: [1] -0.136 | [2] -0.055 | [3] 0.01 | [4] 0.058 | [5] -0.043 | [6] 0.154 | [7] 0.088 | [8] 0.091 | [9] 0.062 | [10] 0.02 | [11] 0.032 | [12] 0.108 | [13] 0.105 | [14] -0.013 | [15] -0.001 | [16] -0.03 | [17] -0.007 | [18] -0.051 | [19] 0.074 | [20] 0.046

MT-CO3 (UniProt P00414)
inactive: [1] -0.088 | [2] 0.082 | [3] -0.224 | [4] 0.13 | [6] -0.128 | [8] -0.019 | [10] -0.101 | [11] -0.104 | [12] -0.184 | [13] 0.128 | [14] -0.395 | [15] 0.145 | [16] 0.17 | [18] 0.048 | [19] 0.012

MVK (UniProt Q03426)
inactive: [1] -0.006 | [2] 0.021 | [3] -0.003 | [4] -0.02 | [5] -0.027 | [6] -0.051 | [7] -0.022 | [8] -0.02 | [9] 0.001 | [10] -0.007 | [11] -0.02 | [12] 0.008 | [13] -0.025 | [14] 0.057 | [15] -0.025 | [16] 0.002 | [17] 0.02 | [18] 0.049 | [19] -0.012 | [20] 0.027

MSRB2 (UniProt Q9Y3D2)
inactive: [1] 0.08 | [2] 0.021 | [3] -0.103 | [4] 0.235 | [5] 0.049 | [6] -0.031 | [7] 0.103 | [8] 0.019 | [9] 0.013 | [10] 0.044 | [11] 0.234 | [12] -0.082 | [13] -0.053 | [14] -0.029 | [15] 0.012 | [16] 0.197 | [17] -0.189 | [18] 0.041 | [19] 0.245 | [20] 0.037
